# Laboratory results reported in the supplement of paper PMC8728848.
# This is one part of the list.
# B1: OS9 (Arabidopsis thaliana) (protein)
# chain: MRGSHHHHHHGMASMTGGQQMGRDLYDDDDKSRLQIFPAHLVGTFSRNNREPKYKIEFLPEDSPFHPGDNLESMVMLDKHGNRFLCYLPKEEKATSGWTSSQQNISTVMMETQQLVKLKTPDELLQPLSEKCLFRQEGWWSYEFCHQKYVRQLHVEDENKIVQEFFLGTFDPEATAAFNQTVSDASTDASQRYHSHVYTNGTTCDLTGSPAEVEVRFVCAETRAMVTSITELSTCKYALTVQCPTLCKHPLFQLEKPVSHTIHCNAIPVEEDATRNKEEQAVDESPKMIADS
# Columns and labels:
# Assay in all cases: glycan array binding signal (z-score within array); higher = stronger binding
# Conditions in all cases: glycan notation: IUPAC condensed, linker removed; mutation: R201A
# [1] = molecular target: Gal(b1-4)GlcNAc(b1-2)Man(a1-3)[Gal(b1-4)GlcNAc(b1-2)Man(a1-6)]Man(b1-4)GlcNAc(b1-4)GlcNAc
# Method in brief: (§1)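 From the Consortium for Functional Glycomics database, 3228 arrays were curated, keeping only those whose protein sequence was available. Binding is given as a within-array Z-score averaged across arrays sharing a protein sequence and across linkers. Negative Z-scores can be read as non-binding.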
# [2] = molecular target: Gal(b1-4)GlcNAc(b1-2)Man(a1-3)[Gal(b1-4)GlcNAc(b1-2)Man(a1-6)]Man(b1-4)GlcNAc(b1-4)[Fuc(a1-6)]GlcNAc
# Method in brief: as §1
# [3] = molecular target: Gal(b1-4)GlcNAc(b1-2)Man(a1-3)[Gal(b1-4)GlcNAc(b1-2)Man(a1-6)][Gal(b1-4)GlcNAc(b1-4)]Man(b1-4)GlcNAc(b1-4)[Fuc(a1-6)]GlcNAc
# Method in brief: as §1
# [4] = molecular target: Gal(b1-4)GlcNAc(b1-2)Man(a1-3)[Gal(b1-4)GlcNAc(b1-2)Man(a1-6)][GlcNAc(b1-4)]Man(b1-4)GlcNAc(b1-4)[Fuc(a1-6)]GlcNAc
# Method in brief: as §1
# [5] = molecular target: Gal(b1-4)GlcNAc(b1-2)Man(a1-3)[GlcNAc(b1-2)Man(a1-6)]Man(b1-4)GlcNAc(b1-4)GlcNAc
# Method in brief: as §1
# [6] = molecular target: Gal(b1-4)GlcNAc(b1-2)Man(a1-3)[GlcNAc(b1-4)][Gal(b1-4)GlcNAc(b1-2)Man(a1-6)]Man(b1-4)GlcNAc(b1-4)GlcNAc
# Method in brief: as §1
# [7] = molecular target: Gal(b1-4)GlcNAc(b1-2)Man(a1-3)[Man(a1-6)]Man(b1-4)GlcNAc(b1-4)GlcNAc
# Method in brief: as §1
# [8] = molecular target: Gal(b1-4)GlcNAc(b1-2)Man(a1-6)Man(b1-4)GlcNAc(b1-4)GlcNAc
# Method in brief: as §1
# [9] = molecular target: Gal(b1-4)GlcNAc(b1-2)Man(a1-6)[GlcNAc(b1-2)Man(a1-3)]Man(b1-4)GlcNAc(b1-4)GlcNAc
# Method in brief: as §1
# [10] = molecular target: Gal(b1-4)GlcNAc(b1-2)Man(a1-6)[Man(a1-3)]Man(b1-4)GlcNAc(b1-4)GlcNAc
# Method in brief: as §1
# [11] = molecular target: Gal(b1-4)GlcNAc(b1-2)[Gal(b1-4)GlcNAc(b1-4)]Man(a1-3)[Gal(b1-4)GlcNAc(b1-2)Man(a1-6)]Man(b1-4)GlcNAc(b1-4)GlcNAc
# Method in brief: as §1
# [12] = molecular target: Gal(b1-4)GlcNAc(b1-2)[Gal(b1-4)GlcNAc(b1-4)]Man(a1-3)[Gal(b1-4)GlcNAc(b1-2)[Gal(b1-4)GlcNAc(b1-6)]Man(a1-6)]Man(b1-4)GlcNAc(b1-4)GlcNAc
# Method in brief: as §1
# [13] = molecular target: Gal(b1-4)GlcNAc(b1-2)[Gal(b1-4)GlcNAc(b1-4)]Man(a1-3)[GlcNAc(b1-4)][Gal(b1-4)GlcNAc(b1-2)Man(a1-6)]Man(b1-4)GlcNAc(b1-4)GlcNAc
# Method in brief: as §1
# [14] = molecular target: Gal(b1-4)GlcNAc(b1-2)[Gal(b1-4)GlcNAc(b1-4)]Man(a1-3)[GlcNAc(b1-4)][Gal(b1-4)GlcNAc(b1-2)[Gal(b1-4)GlcNAc(b1-6)]Man(a1-6)]Man(b1-4)GlcNAc(b1-4)GlcNAc
# Method in brief: as §1
# [15] = molecular target: Gal(b1-4)GlcNAc(b1-2)[Gal(b1-4)GlcNAc(b1-6)]Man(a1-6)[Gal(b1-4)GlcNAc(b1-2)Man(a1-3)]Man(b1-4)GlcNAc(b1-4)GlcNAc
# Method in brief: as §1
# [16] = molecular target: Gal(b1-4)GlcNAc(b1-2)[Gal(b1-4)GlcNAc(b1-6)]Man(a1-6)[Gal(b1-4)GlcNAc(b1-2)Man(a1-3)]Man(b1-4)GlcNAc(b1-4)[Fuc(a1-6)]GlcNAc
# Method in brief: as §1
# [17] = molecular target: Gal(b1-4)GlcNAc(b1-2)[Gal(b1-4)GlcNAc(b1-6)]Man(a1-6)[GlcNAc(b1-4)][Gal(b1-4)GlcNAc(b1-2)Man(a1-3)]Man(b1-4)GlcNAc(b1-4)GlcNAc
# Method in brief: as §1
# [18] = molecular target: Gal(b1-4)GlcNAc(b1-2)[Gal(b1-4)GlcNAc(b1-6)]Man(a1-6)[GlcNAc(b1-4)][Gal(b1-4)GlcNAc(b1-2)[Gal(b1-4)GlcNAc(b1-4)]Man(a1-3)]Man(b1-4)GlcNAc(b1-4)[Fuc(a1-6)]GlcNAc
# Method in brief: as §1
# [19] = molecular target: Gal(b1-4)GlcNAc(b1-3)Gal(b1-3)GalNAc
# Method in brief: as §1
binder,measurement,setting,value
B1,glycan array binding signal (z-score),[1],-0.788
same,glycan array binding signal (z-score),[2],-0.592
same,glycan array binding signal (z-score),[3],-0.811
same,glycan array binding signal (z-score),[4],-0.394
same,glycan array binding signal (z-score),[5],-0.425
same,glycan array binding signal (z-score),[6],-0.779
same,glycan array binding signal (z-score),[7],0.199
same,glycan array binding signal (z-score),[8],-0.45
same,glycan array binding signal (z-score),[9],-0.719
same,glycan array binding signal (z-score),[10],0.448
same,glycan array binding signal (z-score),[11],-0.605
same,glycan array binding signal (z-score),[12],-0.525
same,glycan array binding signal (z-score),[13],-1.19
same,glycan array binding signal (z-score),[14],0.727
same,glycan array binding signal (z-score),[15],-1.21
same,glycan array binding signal (z-score),[16],-0.276
same,glycan array binding signal (z-score),[17],0.041
same,glycan array binding signal (z-score),[18],1.83
same,glycan array binding signal (z-score),[19],-0.513

# A portion from further up, for reference:
binder,measurement,setting,value
B1,glycan array binding signal (z-score),[15],-1.21
same,glycan array binding signal (z-score),[16],-0.276
